Source: the supplement of paper PMC6331611
± gives the standard deviation of the averaged measurements. Over roughly 1,600 compounds, “normalized intracellular growth (luminescence, IQM-normalized) in RAW264.7 macrophages” has its median near 1; the lowest 2% begin near 0.43. The list shows a part of the results.

Test system: Salmonella enterica serovar Typhimurium SL1344
Test: normalized intracellular growth (luminescence, IQM-normalized) in RAW264.7 macrophages (fraction of plate interquartile mean); higher = more bacterial growth (less inhibition)
Settings: 10 µM

SMILES | normalized intracellular growth (time point: T3 (3 h)) | normalized intracellular growth (time point: Tfinal (~6 h))
CC(C)=CC1C(C(=O)OCc2cccc(Oc3ccccc3)c2)C1(C)C (stereo not drawn) | 0.984 ± 0.028 | 0.94 ± 0.11
NC(=O)C[S@@+]([O-])C(c1ccccc1)c1ccccc1 | 1.01 ± 0.057 | 0.925 ± 0.077
C[CH2][Hg][S]c1ccccc1C(=O)[O-].[Na+] | 0.4 ± 0.083 | 0.819 ± 0.26
Oc1noc2c1CCNC2 | 0.959 ± 0.015 | 0.893 ± 0.089
CCCC(C)C1(CC)C(=O)NC(=S)NC1=O (stereo not drawn) | 0.942 ± 0.015 | 0.864 ± 0.22
O=C1C=C2C=C[C@@H]3C[C@@]2(O1)[C@H]1CCCCN31 | 1 ± 0.014 | 0.985 ± 0.031
O=C(O)CCCc1ccc(N(CCCl)CCCl)cc1 | 1.11 ± 0.025 | 1.42 ± 0.21
O=C(O[C@H]1C[C@H]2CC[C@@H](C1)[N+]21CCCC1)C(O)(c1ccccc1)c1ccccc1 | 0.996 ± 0.054 | 0.868 ± 0.29
COc1ccc(C(=O)N2CCCC2=O)cc1 | 0.9913 ± 0.0098 | 0.94 ± 0.042
Nc1ccncc1 | 0.708 ± 0.058 | 1.05 ± 0.13
Cc1ncc(CNC(=O)N(CCCl)N=O)c(N)n1 | 0.95 ± 0.036 | 1.04 ± 0.029
CNc1ccc(C(=O)CC(O)CCC(C)C2OC(=O)CC(O)CC(=O)CC(O)CC(O)CC(O)CC(O)CC3(O)CC(O)C(C(=O)OC)C(CC(O[C@@H]4O[C@H](C)[C@@H](O)[C@H](N)[C@@H]4O)/C=C/C=C/C=C/C=C/C=C/C=C/C=C/C2C)O3)cc1.COC(=O)C1C(O)CC2(O)CC(O)CC(O)CC(O)CC(O)CC(=O)CC(O)CC(=O)OC(C(C)CCC(O)CC(=O)c3ccc(N)cc3)C(C)/C=C/C=C/C=C/C=C/C=C/C=C/C=C/C(O[C@@H]3O[C@H](C)[C@@H](O)[C@H](N)[C@@H]3O)CC1O2 (stereo partly drawn) | 0.957 ± 0.023 | 0.927 ± 0.054
CCCN1C[C@H](CSC)C[C@@H]2c3cccc4[nH]cc(c34)C[C@H]21 | 1.01 ± 0.09 | 0.996 ± 0.31
N.N.[Cl][Pt][Cl] | 1.05 ± 0.047 | 0.858 ± 0.032
CC(C)(O)C(Cl)(Cl)Cl | 0.985 ± 0.021 | 0.998 ± 0.089
Oc1cccc2cccnc12 | 1.04 ± 0.023 | 0.994 ± 0.044
c1ccc2nc(N3CCNCC3)ccc2c1 | 1.14 ± 0.043 | 1 ± 0.27
C[N+](C)(C)CCCCCCCCCC[N+](C)(C)C | 1.03 ± 0.054 | 1.16 ± 0.17
CN1C[C@H](C(=O)N[C@]2(C)O[C@@]3(O)[C@@H]4CCCN4C(=O)[C@H](Cc4ccccc4)N3C2=O)C[C@@H]2c3cccc4[nH]cc(c34)C[C@H]21 | 1.02 ± 0.058 | 0.999 ± 0.14
C[N+]1(C)[C@@H]2CC[C@H]1C[C@@H](OC(=O)C(CO)c1ccccc1)C2 (stereo partly drawn) | 0.952 ± 0.043 | 1.26 ± 0.1
CC(CCc1ccccc1)NC(C)C(O)c1ccc(O)cc1 (stereo not drawn) | 1.02 ± 0.052 | 0.966 ± 0.097
COc1cccc(C2(O)CCCCC2CN(C)C)c1 (stereo not drawn) | 0.958 ± 0.02 | 0.925 ± 0.018
CC(=O)OC1CN2CCC1CC2 (stereo not drawn) | 0.716 ± 0.049 | 1.12 ± 0.096
O=C1C[C@@H]2OCC=C3CN4CC[C@]56c7ccccc7N1[C@H]5[C@H]2[C@H]3C[C@H]46 | 1.1 ± 0.066 | 0.86 ± 0.13

SMILES | normalized intracellular growth (time point: T3 (3 h)) | normalized intracellular growth (time point: Tfinal (~6 h))
N#Cc1nn(-c2c(Cl)cc(C(F)(F)F)cc2Cl)c(N)c1[S+]([O-])C(F)(F)F (stereo not drawn) | 1.03 ± 0.026 | 1 ± 0.23
NCCc1cc(O)c(O)cc1O | 1.05 ± 0.033 | 0.988 ± 0.031
CN1[C@@H]2CC[C@H]1C[C@@H](OC(=O)[C@H](CO)c1ccccc1)C2 | 0.9919 ± 0.0093 | 1.09 ± 0.023
Cc1ccc(-c2nc3ccc(C)cn3c2CC(=O)N(C)C)cc1 | 1.1 ± 0.085 | 1.16 ± 0.052
Nc1nc(N)nc(NC2CC2)n1 | 0.965 ± 0.036 | 1.09 ± 0.088
CC(C)N(CCC(C(N)=O)(c1ccccc1)c1ccccn1)C(C)C (stereo not drawn) | 1.04 ± 0.029 | 1.13 ± 0.076
C[C@H](N)[C@H](O)c1ccc(O)c(O)c1 | 0.993 ± 0.03 | 0.948 ± 0.11
N=C(N)NN | 0.998 ± 0.014 | 1.08 ± 0.058
O=[N+]([O-])O[C@@H]1CO[C@H]2[C@@H]1OC[C@@H]2O | 1.05 ± 0.076 | 0.848 ± 0.069
N[C@@H](Cc1ccc(N(CCCl)CCCl)cc1)C(=O)O | 0.852 ± 0.12 | 1.04 ± 0.22
C=C[C@H]1CN2CC[C@H]1C[C@H]2[C@H](OC(=O)OCC)c1ccnc2ccc(OC)cc12 | 0.96 ± 0.025 | 0.692 ± 0.1
COc1ccc(CN2CCNCC2)c(OC)c1OC | 1.06 ± 0.027 | 0.799 ± 0.19
CC[C@H]1CN2CC[C@H]1C[C@@H]2[C@@H](O)c1ccnc2ccc(OC)cc12 | 1.03 ± 0.052 | 0.867 ± 0.12
C=C(C)[C@H]1CN[C@H](C(=O)O)[C@H]1CC(=O)O | 0.98 ± 0.0065 | 0.953 ± 0.054
Cc1cc(O)ccc1Cl | 1 ± 0.11 | 0.989 ± 0.21
O=C([O-])Cc1ccccc1.[Na+] | 1.15 ± 0.043 | 0.699 ± 0.11
CC(C)CC(N(C)C)C1(c2ccc(Cl)cc2)CCC1 (stereo not drawn) | 1.02 ± 0.018 | 1.33 ± 0.043
COP(=S)(OC)Oc1ccc(SC)c(C)c1 | 0.998 ± 0.072 | 1.18 ± 0.11
O=c1[nH]c2ccccc2n1CCCN1CCC(n2c(=O)[nH]c3cc(Cl)ccc32)CC1 | 1.05 ± 0.069 | 0.989 ± 0.1
O=C([O-])c1ccccc1-c1c2cc(Br)c(=O)cc-2oc2[c]([Hg+])c([O-])c(Br)cc12.[Na+].[Na+].[OH-] | 1.11 ± 0.078 | 1.05 ± 0.23
CC(C)[N+](C)(CCC(C(N)=O)(c1ccccc1)c1ccccc1)C(C)C | 0.983 ± 0.038 | 1.07 ± 0.11
C#C[C@]1(O)CC[C@H]2[C@@H]3CCC4=CC(=O)CC[C@]4(C)[C@H]3CC[C@@]21C | 0.955 ± 0.086 | 1.25 ± 0.11
C=CC[C@]1(O)CC[C@H]2[C@@H]3CCC4=CC(=O)CCC4=C3C=C[C@@]21C | 0.98 ± 0.069 | 1.03 ± 0.049
CC(Cc1ccc(O)cc1)NCC(O)c1cc(O)cc(O)c1 (stereo not drawn) | 0.962 ± 0.063 | 0.926 ± 0.061

SMILES | normalized intracellular growth (time point: T3 (3 h)) | normalized intracellular growth (time point: Tfinal (~6 h))
C=C[C@H]1CN2CC[C@H]1C[C@@H]2[C@@H](O)c1ccnc2ccccc12 | 0.976 ± 0.037 | 1.32 ± 0.059
C=CCN=C=S | 1.02 ± 0.022 | 1.07 ± 0.046
C1CCc2nnnn2CC1 | 0.972 ± 0.019 | 0.919 ± 0.029
COc1ccc2c(c1)[C@]13CCCC[C@@H]1[C@H](C2)N(C)CC3 | 1.04 ± 0.051 | 1.06 ± 0.083
C=C[C@H]1CN2CC[C@H]1C[C@H]2[C@H](O)c1ccnc2ccccc12 | 0.964 ± 0.026 | 0.968 ± 0.35
CC(=O)OCC1=C(C(=O)O)N2C(=O)[C@@H](NC(=O)CCC[C@@H](N)C(=O)O)[C@H]2SC1 | 0.9743 ± 0.0042 | 1.11 ± 0.18
Cc1cccc(C)c1NC1=NCCCS1 | 1.01 ± 0.015 | 0.897 ± 0.044
C[C@@H](CO)NC(=O)[C@@H]1C=C2c3cccc4[nH]cc(c34)C[C@H]2N(C)C1 | 0.942 ± 0.039 | 0.891 ± 0.043
Clc1ccc(C(OCCN2CCCCC2)c2ccccc2)cc1 (stereo not drawn) | 0.995 ± 0.11 | 1.04 ± 0.28
NC(=O)C[S+]([O-])C(c1ccccc1)c1ccccc1 (stereo not drawn) | 1.01 ± 0.11 | 0.845 ± 0.15
O=P1(NCCCl)OCCCN1CCCl (stereo not drawn) | 0.964 ± 0.024 | 1.06 ± 0.21
Oc1ccc(Cl)cc1 | 1.02 ± 0.017 | 1.13 ± 0.023
CC(C)c1c(CN(C)C(C)Cc2ccccc2)n(C)n(-c2ccccc2)c1=O (stereo not drawn) | 1.05 ± 0.024 | 0.887 ± 0.045
O=c1[nH]c(=O)n(Cl)c(=O)n1Cl | 0.948 ± 0.1 | 0.897 ± 0.093
NC(=O)CN1CCCC1=O | 1.07 ± 0.075 | 1.17 ± 0.11
CC(C)C[C@H](CN)CC(=O)O | 0.947 ± 0.012 | 0.952 ± 0.083
CN(C)C(=S)SSC(=S)N(C)C | 1.14 ± 0.05 | 0.863 ± 0.0094
CCC(C)(C)O | 0.918 ± 0.06 | 1.05 ± 0.043
CC(C)(C)NCC(O)c1ccccc1Cl (stereo not drawn) | 0.984 ± 0.02 | 0.905 ± 0.097
COC(=O)C(c1ccccc1)C1CCCCN1 (stereo not drawn) | 0.958 ± 0.041 | 1.06 ± 0.062
CO[C@]12C[C@@H](COC(=O)c3cncc(Br)c3)CN(C)[C@@H]1Cc1cn(C)c3cccc2c13 | 0.7 ± 0.05 | 0.918 ± 0.098
OC[C@@H](O)[C@H]1O[C@@H]2O[C@H](C(Cl)(Cl)Cl)O[C@@H]2[C@H]1O | 1.01 ± 0.039 | 1.07 ± 0.077
C[N+]12CCC(CC1)C(OC(=O)C(O)(c1ccccc1)c1ccccc1)C2 (stereo not drawn) | 0.944 ± 0.057 | 0.827 ± 0.032
CC(=O)[C@H]1CC[C@H]2[C@@H]3CC[C@@H]4C[C@H](O)CC[C@]4(C)[C@H]3CC[C@]12C | 1.09 ± 0.032 | 0.865 ± 0.21

SMILES | normalized intracellular growth (time point: T3 (3 h)) | normalized intracellular growth (time point: Tfinal (~6 h))
CC(CC(C(N)=O)(c1ccccc1)c1ccccc1)N(C)C (stereo not drawn) | 1 ± 0.036 | 0.82 ± 0.15
CC1(C)C(C=C(Cl)Cl)C1C(=O)OCc1cccc(Oc2ccccc2)c1 (stereo not drawn) | 1.12 ± 0.029 | 1.11 ± 0.24
O=[N+]([O-])c1ccc([As](=O)(O)O)cc1 | 0.971 ± 0.064 | 1.07 ± 0.15
CCN(C(C)=O)c1cccc(-c2ccnc3c(C#N)cnn23)c1 | 1.07 ± 0.12 | 1.03 ± 0.22
CC[C@H]1CN2CCc3cc(OC)c(OC)cc3[C@@H]2C[C@@H]1C[C@H]1NCCc2cc(OC)c(OC)cc21 | 1.1 ± 0.1 | 1.25 ± 0.16
COc1cc([C@@H]2c3cc4c(cc3[C@H](O)[C@H]3COC(=O)[C@H]23)OCO4)cc(OC)c1OC | 0.92 ± 0.035 | 1.04 ± 0.066
Cc1ccc(O)cc1.Cc1cccc(O)c1.Cc1ccccc1O | 0.945 ± 0.022 | 1.1 ± 0.034
CCNC1(c2cccs2)CCCCC1=O (stereo not drawn) | 0.959 ± 0.023 | 0.585 ± 0.28
C[C@@H]1CC[C@H]2[C@@H](C)C(=O)O[C@@H]3O[C@@]4(C)CC[C@@H]1[C@]32OO4 | 1.02 ± 0.059 | 0.899 ± 0.095
CC[C@H]1[C@@H]2C[C@H]3[C@@H]4N(C)c5ccccc5[C@]45C[C@@H]([C@@H]2[C@H]5O)N3[C@@H]1O | 1.07 ± 0.066 | 0.799 ± 0.035
O=C(NC(=O)c1c(F)cccc1F)Nc1cc(Cl)c(OC(F)(F)C(F)C(F)(F)F)cc1Cl (stereo not drawn) | 1.04 ± 0.04 | 1.04 ± 0.11
CNCC(=O)c1ccc(O)c(O)c1 | 0.988 ± 0.013 | 1.02 ± 0.061
COC(=O)C1=CCCN(C)C1 | 0.956 ± 0.012 | 0.845 ± 0.023
CC(C)(C)NCC(O)c1cc(Cl)c(N)c(Cl)c1 (stereo not drawn) | 0.957 ± 0.024 | 0.991 ± 0.19
COc1cc2c(cc1OC)[C@@]13CCN4CC5=CCO[C@H]6CC(=O)N2[C@H]1[C@H]6[C@H]5C[C@H]43 | 1.03 ± 0.11 | 0.839 ± 0.19
O=C(N/N=C/c1ccc([N+](=O)[O-])o1)c1cc([N+](=O)[O-])cc([N+](=O)[O-])c1O | 1.04 ± 0.024 | 1.03 ± 0.19
C[C@]12CC[C@H]3[C@@H](CC[C@@]45O[C@@H]4C(O)=C(C#N)C[C@]35C)[C@@H]1CC[C@@H]2O | 0.972 ± 0.022 | 1.03 ± 0.14
COc1ccc(Cc2nccc3cc(OC)c(OC)cc23)cc1OC | 1.04 ± 0.031 | 0.881 ± 0.29
CCC1(CC)C(=O)C=CNC1=O | 0.983 ± 0.025 | 0.937 ± 0.076
CC1(C)C(C=C(Cl)Cl)C1C(=O)OC(C#N)c1cccc(Oc2ccccc2)c1 (stereo not drawn) | 1.01 ± 0.053 | 1.02 ± 0.13
Oc1cc(Cl)ccc1Oc1ccc(Cl)cc1Cl | 0.343 ± 0.083 | 0.256 ± 0.12
COc1ccc(CCN2CCC(Nc3nc4ccccc4n3Cc3ccc(F)cc3)CC2)cc1 | 0.916 ± 0.036 | 1.11 ± 0.091

In a second layout: entries from further up
SMILES,normalized intracellular growth (time point: T3 (3 h)),normalized intracellular growth (time point: Tfinal (~6 h))
O=[N+]([O-])c1ccc([As](=O)(O)O)cc1,0.971 ± 0.064,1.07 ± 0.15
CCN(C(C)=O)c1cccc(-c2ccnc3c(C#N)cnn23)c1,1.07 ± 0.12,1.03 ± 0.22
CC[C@H]1CN2CCc3cc(OC)c(OC)cc3[C@@H]2C[C@@H]1C[C@H]1NCCc2cc(OC)c(OC)cc21,1.1 ± 0.1,1.25 ± 0.16
COC(=O)C1=CCCN(C)C1,0.956 ± 0.012,0.845 ± 0.023
COc1ccc(Cc2nccc3cc(OC)c(OC)cc23)cc1OC,1.04 ± 0.031,0.881 ± 0.29
CCC1(CC)C(=O)C=CNC1=O,0.983 ± 0.025,0.937 ± 0.076
Oc1cc(Cl)ccc1Oc1ccc(Cl)cc1Cl,0.343 ± 0.083,0.256 ± 0.12
